Measurements as given in PubChem BioAssay AID1347131 (National Center for Advancing Translational Sciences (NCATS), 2019).
In all, about 410,000 compounds went through this assay and about 2,000 (0.49%) were called active. This list was built around the results that the source calls inconclusive (neither active nor inactive); the mix of calls is not that of the screen. Calls come from the whole dose curve; tested in HEK293 reporter line. A potency beside an inconclusive call is a rough fit, not a confirmed value.
Potency is the fitted concentration of half-maximal effect.

Assay: qHTS Assay for Foot and Mouth Disease Virus Antivirals: Primary Screen against the MLPCN compound library; note: nearly all actives have a fitted effect of over 55% in size
Settings: FMDV antiviral cell-based qHTS; series mostly up to 57.9 µM
For `COc1cccc(/C=N/NC(=O)c2c(C)nc3ccc(Br)cn23)c1`, the Potency was inconclusive: 11.2 µM [inhibitor, partial curve].
For `CN1/C(=C\C(=O)CSc2nnc(N)s2)C(C)(C)c2ccccc21`, the Potency was “inactive”.
In the case of `Oc1ccccc1-c1nc(/C=C/c2ccccc2Cl)no1`, the Potency is reported as inconclusive: 12.6 µM [inhibitor, single point].
With `CC(=O)OC1CC2C(C)(C)C(=O)C=C[C@]2(C)C2CC[C@]3(C)C(=CC(=O)OC3c3ccoc3)[C@]12C` (some centres not stated) the Potency was inconclusive: 25.1 µM [inhibitor, single point].
With `COc1cc(CNc2ncnc3c2ncn3[C@H]2CN(Cc3ccc(F)cc3)C[C@@H](CO)O2)cc(OC)c1OC` the Potency was “inactive”.
For `O=C(/C=C/c1ccc(S(=O)(=O)N2CCOCC2)cc1)N1CCN(c2ccccc2)CC1`, the Potency was inconclusive: 31.6 µM [inhibitor, partial curve, poor fit].
In the case of `C[C@]1(O)CC(=O)C=C[C@H]1Nc1ccccc1`, the Potency is reported as inconclusive: 25.1 µM [inhibitor, single point].
In the case of `CNc1nc(SCc2ccccc2Cl)nc2c1CCCC2`, the Potency is reported as inconclusive: 14.1 µM [inhibitor, partial curve].
For `COc1ccc(-c2nc(-c3ccc(C(=O)O)cc3)no2)cc1`, the Potency was inconclusive: 11.2 µM [inhibitor, partial curve, poor fit].
For `COc1ccc(C2C3=C(CC(C)(C)CC3=O)Oc3ncn(Cc4ccco4)c(=N)c32)cc1` (configuration not stated), the Potency was inconclusive: 28.2 µM [inhibitor, partial curve, poor fit].
In the case of `Cc1ccc(C)c(Nc2cc(C)nc3ccccc23)c1`, the Potency is reported as “inactive”.
For `CCOc1ccc(CCNC(=O)C2CCN(C(=O)N3CC(CC)Oc4ccc(C)cc43)CC2)cc1` (configuration not stated), the Potency was inconclusive: 28.2 µM [inhibitor, partial curve, poor fit].
In the case of `CN(CC(=O)N1CCN(c2ccccc2)CC1)C1CCCc2ccccc21` (configuration not stated), the Potency is reported as inconclusive: 3.55 µM [inhibitor, partial curve].
In the case of `COc1ccc(OCC(=O)Nc2ccc(N3CCN(C(=O)c4ccccc4)CC3)c(Cl)c2)cc1`, the Potency is reported as inconclusive: 11.2 µM [inhibitor, partial curve, poor fit].
For `COc1ccc(-c2ccc(NC(=O)c3ccco3)cc2)nn1`, the Potency was inconclusive: 11.2 µM [inhibitor, partial curve, poor fit].
In the case of `COc1ccc([N+](=O)[O-])cc1Nc1c2ccccc2nc2ccccc12`, the Potency is reported as inconclusive: 31.6 µM [inhibitor, partial curve, poor fit].
With `CCN(CC(=O)Nc1cccc(OC)c1)c1ncnc2sc(C)c(C)c12` the Potency was inconclusive: 20 µM [inhibitor, partial curve, poor fit].
